{"sequences": {"note": "Amino acid sequences for entries named in this document (tags omitted). Residues count along the entry.", "UniProt P54764, 20-986, species assumed": "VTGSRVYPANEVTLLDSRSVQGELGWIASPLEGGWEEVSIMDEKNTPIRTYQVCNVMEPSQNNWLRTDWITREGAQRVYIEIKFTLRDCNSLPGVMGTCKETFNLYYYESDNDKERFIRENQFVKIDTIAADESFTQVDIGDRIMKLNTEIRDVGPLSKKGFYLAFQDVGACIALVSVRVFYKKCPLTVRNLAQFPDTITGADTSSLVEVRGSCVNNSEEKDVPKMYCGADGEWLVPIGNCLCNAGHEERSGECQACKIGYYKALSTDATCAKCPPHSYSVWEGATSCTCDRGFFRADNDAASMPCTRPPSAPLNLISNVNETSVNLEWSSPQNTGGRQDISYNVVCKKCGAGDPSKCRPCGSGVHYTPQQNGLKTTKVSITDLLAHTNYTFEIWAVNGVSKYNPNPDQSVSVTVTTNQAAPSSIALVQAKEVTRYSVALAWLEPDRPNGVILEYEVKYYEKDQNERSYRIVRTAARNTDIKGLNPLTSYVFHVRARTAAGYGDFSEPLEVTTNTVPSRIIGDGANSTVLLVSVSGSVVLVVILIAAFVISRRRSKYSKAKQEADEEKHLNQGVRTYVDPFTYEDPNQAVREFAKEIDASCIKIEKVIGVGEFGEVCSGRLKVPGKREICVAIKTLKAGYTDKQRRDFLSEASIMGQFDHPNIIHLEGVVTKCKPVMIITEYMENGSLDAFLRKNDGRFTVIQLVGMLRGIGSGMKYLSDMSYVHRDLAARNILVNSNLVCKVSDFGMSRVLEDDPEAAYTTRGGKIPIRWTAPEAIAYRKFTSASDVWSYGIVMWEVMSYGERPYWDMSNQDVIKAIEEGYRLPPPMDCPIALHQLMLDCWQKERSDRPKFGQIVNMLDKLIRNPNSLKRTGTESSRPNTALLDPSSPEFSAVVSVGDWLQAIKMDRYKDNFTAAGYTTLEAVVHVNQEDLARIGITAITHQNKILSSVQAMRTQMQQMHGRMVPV"}, "source": "patent US9187784B2", "about": "“EphA4 is a disease modifier in motor neuron disease” (VIB VZW, priority 2011, dated 2015)", "origin": "cited, not measured here", "target": "EphA4 (Homo sapiens, UniProt P54764)", "details": "Noberini et al.; cited from earlier work", "note": "At least one compound was matched to its structure with a doubt left.", "data": [{"compound": "Cc1ccc(C)n1-c1ccc(C(=O)O)c(O)c1", "note": "[Compound C1]", "values": [{"measurement": "inhibition of ephrin binding to EphA4", "value": "selectively inhibit ephrin binding to EphA4"}]}]}
